# Values joined by “and” are separate entries in the source; they are usually repeats but may differ in a detail not shown here. Equal entries are not always repeated. Structures can show the parent of a compound that is named as a salt. ± gives the standard deviation of the averaged measurements. Some of the results follow. Baselines shift from plate to plate; read single values as rough.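 Assay uses culture-activated primary human stellate myofibroblasts; lipid droplet recovery indicates inactivation. Measured: proportion of Hoechst-counted cells over a plate-specific Bodipy cutoff, duplicate wells, DMSO and nortriptyline as per-plate negative and positive controls. A hit scores, control-normalized, above the plate's top-tenth-percentile nortriptyline wells or ranks among its three best wells. Final well concentrations not reported.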
# Test system: primary human hepatic stellate cells (donor 1)
# Test: percent Bodipy-positive cells; higher = more lipid droplet accumulation
# Conditions: 48 h
# [1] = library stock concentration: 10 mM
# [2] = library stock concentration: 1 mM
# [3] = library stock concentration: 3.33 mM
# [4] = library stock concentration: 80 uM
# [5] = library stock concentration: 400 uM
# [6] = library stock concentration: 2 mM
smiles,measurement,setting,value
Cl.Cl.OCCN1CCN(CC/C=C2/c3ccccc3Sc3ccc(C(F)(F)F)cc32)CC1 [cis-(Z)-Flupenthixol dihydrochloride],percent Bodipy-positive cells,[1],95.2 ± 2.8%
C[C@@H](O)CCC[C@H](O)/C=C/C1=C(C/C=C\CCCC(=O)O)C(=O)CC1 [19(R)-hydroxy Prostaglandin B2],percent Bodipy-positive cells,[2],10 ± 0.47%
O=C1C=CC(=C(c2ccc(O)cc2)c2ccc(O)cc2)C=C1 [Rosolic acid],percent Bodipy-positive cells,[1],58.3 ± 4.5%
CSc1cccc(Nc2ncc3cc(-c4c(Cl)cccc4Cl)c(=O)n(C)c3n2)c1,percent Bodipy-positive cells,[3],78.89 ± 0.39%
same,percent Bodipy-positive cells,[1],73.3 ± 3.7%
CCOC(=O)Nc1ccc2c(c1)N(C(=O)CCN1CCOCC1)c1ccccc1S2 [Moricizine hydrochloride],percent Bodipy-positive cells,,6.69 ± 0.54%
O=c1c(-c2ccc(O)cc2)coc2cc(O)cc(O)c12 [Genistein],percent Bodipy-positive cells,[2],9.75 ± 0.5%
same,percent Bodipy-positive cells,[3],9.9 ± 3.2%
same,percent Bodipy-positive cells,library stock concentration: 19.2 mM,10.1 ± 0.26%
OCc1ccc(-c2ccc(-c3ccc(CO)s3)o2)s1,percent Bodipy-positive cells,[3],60.9 ± 32%
same,percent Bodipy-positive cells,[1],59.2 ± 9.1%
N[C@H](Cc1ccccc1)C(=O)O [D-phenylalanine],percent Bodipy-positive cells,[1],43.8 ± 9.2%
O=C(O)c1ccc(Nc2ncc3c(n2)-c2ccc(Cl)cc2C(c2c(F)cccc2F)=NC3)cc1,percent Bodipy-positive cells,[4],10.7 ± 1.6%
same,percent Bodipy-positive cells,[5],9.34 ± 4%
same,percent Bodipy-positive cells,[6],8.62 ± 7.1%
same,percent Bodipy-positive cells,[3],9.2 ± 0.2%
same,percent Bodipy-positive cells,[1],15.5% and 7.26%
CNCC[C@H](Oc1cccc2ccccc12)c1cccs1 [Duloxetine],percent Bodipy-positive cells,[1],95.46 ± 0.33%
Nc1c2c(nc3c1CCC3)CCCC2,percent Bodipy-positive cells,[1],13 ± 6%
Cc1cc(N2CCOCC2)ccc1Nc1nc(NC2CCCCC2)c2[nH]cnc2n1,percent Bodipy-positive cells,[3],37.7 ± 1.4%
same,percent Bodipy-positive cells,[1],51.3 ± 14%
CC[C@H]1OC(=O)[C@H](C)[C@@H](O[C@H]2C[C@@](C)(OC)[C@@H](O)[C@H](C)O2)[C@H](C)[C@@H](O[C@@H]2O[C@H](C)C[C@H](NC)[C@H]2O)[C@](C)(O)C[C@@H](C)CN(C)[C@H](C)[C@@H](O)[C@]1(C)O,percent Bodipy-positive cells,[1],57.8 ± 3.7%
CC(=O)NNC(=O)N1Cc2ccccc2Oc2ccc(Cl)cc21,percent Bodipy-positive cells,[1],18.4% and 6.26%
OC1CCC(Nc2nc(-c3ccccc3)nc3[nH]ccc23)CC1 (stereo not drawn),percent Bodipy-positive cells,[1],7.33 ± 3.4%
O=S(=O)(NCCNCC=Cc1ccc(Br)cc1)c1cccc2cnccc12,percent Bodipy-positive cells,[3],18.4 ± 8.4%
same,percent Bodipy-positive cells,[1],65.8 ± 9.9%
CNC[C@H](O)c1cccc(O)c1 [Phenylephrine HCl],percent Bodipy-positive cells,[3],6.93 ± 0.18%
same,percent Bodipy-positive cells,[1],10.2 ± 2.1%
CNC[C@H](O)c1cccc(O)c1 [Phenylephrine hydrochloride],percent Bodipy-positive cells,[1],27.2% and 21.5%
[Cl-].[Li+] [Lithium Chloride],percent Bodipy-positive cells,[1],48.5 ± 16%
Cc1nc(Nc2n[nH]c3c2CN(C(=O)N[C@H](CN(C)C)c2ccccc2)C3(C)C)c2sccc2n1,percent Bodipy-positive cells,[4],7.65 ± 0.7%
same,percent Bodipy-positive cells,[5],18.9 ± 2.4%
same,percent Bodipy-positive cells,[6],53.4 ± 0.84%
same,percent Bodipy-positive cells,[3],76.2 ± 6.4%
same,percent Bodipy-positive cells,[1],94.52 ± 0.57%
CN1C(=O)CC(C)(c2ccccc2)C1=O (stereo not drawn),percent Bodipy-positive cells,[1],25.8 ± 6.7%
CCOc1ccn(-c2ccc(F)cc2)c(=O)c1C(=O)Nc1ccc(Oc2ccnc(N)c2Cl)c(F)c1,percent Bodipy-positive cells,[4],16.3 ± 7.4%
same,percent Bodipy-positive cells,[5],14.5 ± 1.8%
same,percent Bodipy-positive cells,[6],11.3 ± 1.2%
same,percent Bodipy-positive cells,[3],4.71 ± 2.6%
same,percent Bodipy-positive cells,[1],14.5% and 13.9%
CN1CCN(C2=Nc3cc(Cl)ccc3Nc3ccccc32)CC1 [Clozapine],percent Bodipy-positive cells,[1],66.3 ± 5.6%
CCn1cc(-c2ccnc3[nH]c(-c4cccc(CN(C)C)c4)cc23)c(-c2ccc(NC(=O)N(C)C)cc2)n1,percent Bodipy-positive cells,[4],10.2 ± 5.6%
same,percent Bodipy-positive cells,[5],28.5 ± 20%
same,percent Bodipy-positive cells,[6],36.7 ± 4.6%
"CCCCCCN(CCCCCC)C(=O)Cc1c(-c2ccc(F)cc2)[nH]c2ccccc12 [N,N-Dihexyl-2-(4-fluorophenyl)indole-3-acetamide]",percent Bodipy-positive cells,[1],52.4 ± 2.7%
CCCCCCN(CCCCCC)C(=O)Cc1c(-c2ccc(F)cc2)[nH]c2ccccc12,percent Bodipy-positive cells,[1],10.1 ± 0.91%
CCN(CC)CCNC(=O)c1ccc(NC(C)=O)cc1 [Acecainide hydrochloride],percent Bodipy-positive cells,library stock concentration: 6.4 mM,10.7 ± 0.52%
CCN(CC)CCNC(=O)c1ccc(NC(C)=O)cc1 [N-Acetylprocainamide hydrochloride],percent Bodipy-positive cells,[1],43.6 ± 3.4%
CCN(CC)CCN(Cc1ccc(-c2ccc(C(F)(F)F)cc2)cc1)C(=O)Cn1c(SCc2ccc(F)cc2)nc(=O)c2c1CCC2,percent Bodipy-positive cells,[3],95.2 ± 4.5%
same,percent Bodipy-positive cells,[1],100%
N#C[C@@H]1CCCN1C(=O)CNC12CC3CC(CC(O)(C3)C1)C2 [Vildagliptin (LAF-237)],percent Bodipy-positive cells,[3],11.2 ± 3.6%
same,percent Bodipy-positive cells,[1],12.9 ± 0.9%
O=C(O)CCCC=CCC1C(O)CC(O)C1C=CC(O)COc1cccc(C(F)(F)F)c1 [15(S)-Fluprostenol],percent Bodipy-positive cells,[2],14 ± 4.5%
CC(C)(CO)[C@@H](O)C(=O)NCCCO [Dexpanthenol],percent Bodipy-positive cells,library stock concentration: 9.7 mM,0.963 ± 0.81%
"COC(=O)c1ccc2c(c1)NC(=O)/C2=C(\Nc1ccc(N(C)C(=O)CN2CCN(C)CC2)cc1)c1ccccc1 [Intedanib  (BIBF 1120, Vargatef) (2 mM)]",percent Bodipy-positive cells,[6],57.4 ± 5.5%
"COC(=O)c1ccc2c(c1)NC(=O)/C2=C(\Nc1ccc(N(C)C(=O)CN2CCN(C)CC2)cc1)c1ccccc1 [Intedanib (BIBF 1120, Vargatef) (0.4 mM)]",percent Bodipy-positive cells,[5],34.3 ± 0.12%
CCOC(=O)[C@H](CCc1ccccc1)N[C@@H](C)C(=O)N1[C@H](C(=O)O)C[C@H]2CCCC[C@@H]21 [Trandolapril],percent Bodipy-positive cells,[1],46% and 22.1%
O=C(O[C@@H]1Cc2c(O)cc(O)cc2O[C@@H]1c1cc(O)c(O)c(O)c1)c1cc(O)c(O)c(O)c1 [(-)-Epigallocatechin Gallate],percent Bodipy-positive cells,[2],8.27 ± 1.8%
O=C(O[C@@H]1Cc2c(O)cc(O)cc2O[C@@H]1c1cc(O)c(O)c(O)c1)c1cc(O)c(O)c(O)c1 [Epigallocatechin gallate],percent Bodipy-positive cells,[4],29.5 ± 1.4%
same,percent Bodipy-positive cells,[5],32.6 ± 1%
same,percent Bodipy-positive cells,[6],39.2 ± 6.8%
same,percent Bodipy-positive cells,[1],9.25% and 29.2%

# Reprinted from the results shown for reference:
smiles,measurement,setting,value
"CCCCCCN(CCCCCC)C(=O)Cc1c(-c2ccc(F)cc2)[nH]c2ccccc12 [N,N-Dihexyl-2-(4-fluorophenyl)indole-3-acetamide]",percent Bodipy-positive cells,[1],52.4 ± 2.7%
CCCCCCN(CCCCCC)C(=O)Cc1c(-c2ccc(F)cc2)[nH]c2ccccc12,percent Bodipy-positive cells,[1],10.1 ± 0.91%
CCN(CC)CCNC(=O)c1ccc(NC(C)=O)cc1 [Acecainide hydrochloride],percent Bodipy-positive cells,library stock concentration: 6.4 mM,10.7 ± 0.52%
CCN(CC)CCNC(=O)c1ccc(NC(C)=O)cc1 [N-Acetylprocainamide hydrochloride],percent Bodipy-positive cells,[1],43.6 ± 3.4%

# Reference: the supplement of paper PMC9135407
